Experimental data published in the supplement of paper PMC4371806.
Over roughly 1,600 compounds, “plate-normalized OD600 growth (mean of duplicates)” has its median near 0.31; the lowest 2% begin near 0.23. The list shows a part of the results.

Test system: Escherichia coli BW25113
Experiment: plate-normalized OD600 growth (mean of duplicates) (OD600 (normalized)); higher = more growth (less inhibition)
Conditions: 10 µM
Protocol: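 E. coli BW25113 in LB (100 µl, 96-well, no shaking) was exposed to 10 µM of each compound (here the ChemBridge subset of a ~30,000-member library) and grown at 37°C for 24 h or 15°C for 48 h, in duplicate. Growth was read as OD600 and the duplicate ODs were normalized across screening plates to correct plate-to-plate variation.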

| SMILES | plate-normalized OD600 growth (temperature: 15°C, 48 h) | plate-normalized OD600 growth (temperature: 37°C, 24 h) |
| --- | --- | --- |
| Cc1cccc(C)c1NC(=O)CN1CCCCC1 | 0.241 | 0.618 |
| O=C(O)CCCNc1ccc(S(=O)(=O)O)cc1 | 0.237 | 0.591 |
| NCCOc1ccccc1Cc1ccccc1 | 0.26 | 0.63 |
| COc1cccc(NC(=O)c2ccncc2)c1 | 0.261 | 0.618 |
| O=C(O)CN1C(=O)C(=O)c2ccccc21 | 0.261 | 0.62 |
| CCn1c(C)nc2cc(Cl)c(Cl)cc21 | 0.277 | 0.66 |
| CN1CCCN(CC2CC3C=CC2C3)CC1 (centres undefined) | 0.225 | 0.656 |
| Cc1cc(C)nc(SCCN2CCCC2)n1 | 0.25 | 0.615 |
| O=C(O)C1C(=O)NCC1c1ccccc1 (centres undefined) | 0.251 | 0.651 |
| O=C(Nc1ccc([N+](=O)[O-])cc1)c1ccco1 | 0.245 | 0.626 |
| Cc1cc([N+](=O)[O-])ccc1NC(=O)c1ccc(F)cc1 | 0.259 | 0.647 |
| Cc1c(C#N)c(N=CN(C)C)c(C(=O)c2ccccc2)n1-c1ccccc1 | 0.246 | 0.596 |
| Cc1nn(-c2ccccc2)c(N2CCCCC2)c1C=O | 0.266 | 0.62 |
| O=C(CCCOc1ccc(Cl)cc1Cl)N1CCCCC1 | 0.241 | 0.613 |
| COc1ccccc1CNC(=O)C(c1ccccc1)c1ccccc1 | 0.248 | 0.614 |
| CCN1CCC(N2CCN(c3ccc(F)cc3)CC2)CC1 | 0.239 | 0.611 |
| O=C(COc1ccc(Cl)cc1Cl)Nc1ccc(C(=O)O)cc1 | 0.261 | 0.618 |
| N#C/C(=C/C=C/c1ccccc1)c1nc(-c2cccs2)cs1 | 0.261 | 0.623 |
| Cc1nnc(Sc2ccc(C=O)o2)s1 | 0.227 | 0.604 |
| O=C(Nc1ccccc1[N+](=O)[O-])c1cccc(S(=O)(=O)Nc2ccccc2)c1 | 0.26 | 0.614 |
| Cc1ccc(OCCCN2CCOCC2)cc1C | 0.257 | 0.611 |
| O=C1c2ccccc2C(=O)C1c1nc2ccccc2[nH]1 | 0.269 | 0.667 |
| COc1ccc(N2CCN(Cc3ccc(C)o3)CC2)cc1 | 0.253 | 0.596 |
| c1ccc2c(c1)CCN(Cc1ccncc1)C2 | 0.236 | 0.651 |

| SMILES | plate-normalized OD600 growth (temperature: 15°C, 48 h) | plate-normalized OD600 growth (temperature: 37°C, 24 h) |
| --- | --- | --- |
| Cc1ccc(C(=O)Nc2cc(C)c(O)cc2C)cc1 | 0.252 | 0.613 |
| CCN1CCN(C/C=C/c2ccccc2)CC1 | 0.28 | 0.634 |
| CCc1nnc(NC(=O)CCc2ccccc2)s1 | 0.235 | 0.605 |
| O=C1CCCc2occ(-c3ccc([N+](=O)[O-])cc3)c21 | 0.253 | 0.634 |
| Cc1nc(-c2ccccc2)cc(N2CCCC2)n1 | 0.253 | 0.616 |
| COc1ccc(OC)c(NC(=O)CCN2CCCC(C)C2)c1 (centres undefined) | 0.257 | 0.614 |
| COc1ccccc1N1CCN(Cc2ccsc2)CC1 | 0.256 | 0.609 |
| COc1ccc(NC(=O)C2CC(=O)N(c3ccccc3C)C2)cc1 (centres undefined) | 0.267 | 0.611 |
| N#Cc1c(-c2ccc([N+](=O)[O-])cc2)cc(-c2ccccc2)nc1N | 0.244 | 0.631 |
| C=CCn1c(SCCC)nc(O)cc1=O | 0.268 | 0.655 |
| O=C(Nc1ccccc1NC(=O)c1ccco1)c1ccco1 | 0.245 | 0.609 |
| NC(=O)C1CCCN(Cc2ccccc2F)C1 (centres undefined) | 0.249 | 0.65 |
| c1ccc(NC2=Nc3ccccc3CC2)cc1 | 0.277 | 0.627 |
| c1cncc(CNc2ccc3c(c2)CCC3)c1 | 0.257 | 0.648 |
| N#CC1=C(N)SC(N)=C(C#N)C1Cc1ccccc1 | 0.259 | 0.643 |
| CN(C)CCOC(=O)NC12CC3CC(CC(C3)C1)C2 | 0.247 | 0.591 |
| O=S1(=O)CC(O)C(S(=O)(=O)c2ccccc2)C1 (centres undefined) | 0.241 | 0.596 |
| OCC(O)CSc1nc2ccccc2[nH]1 (centres undefined) | 0.236 | 0.608 |
| Cn1c2ccccc2c2nc3ccc([N+](=O)[O-])cc3cc21 | 0.249 | 0.639 |
| N#Cc1cc([N+](=O)[O-])cnc1NCCO | 0.242 | 0.622 |
| Cc1cccc(N2CCN(C(=O)c3ccc([N+](=O)[O-])cc3Cl)CC2)c1C | 0.26 | 0.631 |
| N#CC1=C(SCC(=O)Nc2ccc(Br)cc2)NC(=O)C(C#N)C12CCCCC2 (centres undefined) | 0.257 | 0.604 |
| COC(C(=O)Nc1ccc([N+](=O)[O-])cc1)c1ccccc1 (centres undefined) | 0.261 | 0.63 |
| CCc1ccc(-c2csc(Nc3cccc(OC)c3)n2)cc1 | 0.222 | 0.604 |

A different layout for three compounds above.
SMILES | plate-normalized OD600 growth (temperature: 15°C, 48 h) | plate-normalized OD600 growth (temperature: 37°C, 24 h)
CCN1CCN(C/C=C/c2ccccc2)CC1 | 0.28 | 0.634
N#Cc1c(-c2ccc([N+](=O)[O-])cc2)cc(-c2ccccc2)nc1N | 0.244 | 0.631
c1cncc(CNc2ccc3c(c2)CCC3)c1 | 0.257 | 0.648

Continuation:

| SMILES | plate-normalized OD600 growth (temperature: 15°C, 48 h) | plate-normalized OD600 growth (temperature: 37°C, 24 h) |
| --- | --- | --- |
| OCCCc1cn(Cc2ccccc2)c2ccccc12 | 0.245 | 0.643 |
| CCCSc1nc(O)cc(=O)n1C | 0.261 | 0.622 |
| CCN(C(=O)Cc1ccccc1)C1CCCCC1 | 0.221 | 0.606 |
| O=C(O)CCCC(=O)Nc1cccc(Cl)c1Cl | 0.254 | 0.622 |
| Cc1cc(=O)[nH]c(SCC(=O)Nc2ccc(Br)cc2)c1C#N | 0.214 | 0.594 |
| O=C1CCCc2c1nc(-c1ccccc1)n2O | 0.272 | 0.662 |
| CC(=O)N1Cc2ccccc2C(C)CC12CCCC2 (centres undefined) | 0.272 | 0.632 |
| COc1ccc(/C=C(/C#N)c2nc(-c3ccc(Br)cc3)cs2)cc1OC | 0.278 | 0.657 |
| O=C(Nc1ccccc1)c1ccc(O)c([N+](=O)[O-])c1 | 0.252 | 0.618 |
| Cc1ccc(S(=O)(=O)N(CC(=O)O)c2cccc(Cl)c2)cc1 | 0.268 | 0.636 |
| Cc1c(Cl)c([N+](=O)[O-])nn1CC(=O)NCC1CCCO1 (centres undefined) | 0.259 | 0.633 |
| Cc1cc(C)c2ccc(C=O)nc2c1O | 0.239 | 0.624 |
| COc1ccc(OC)c(NC(=O)CCCN2C(=O)c3ccccc3C2=O)c1 | 0.241 | 0.622 |
| CSc1nc(SC)c2c3c(sc2n1)CN(C)CC3 | 0.241 | 0.616 |
| O=C(CN1CCCCC1)NC12CC3CC(CC(C3)C1)C2 | 0.274 | 0.65 |
| COc1ccccc1CNC(=O)c1ccccc1Cl | 0.243 | 0.616 |
| Cc1nc2cc(C(=O)O)ccc2n1C1CCCCC1 | 0.251 | 0.642 |
| Cc1cccc(C)c1NC(=O)C1CCCCC1C(=O)O (centres undefined) | 0.251 | 0.615 |
| Cc1ccc(NC(=O)c2c(O)c3ccccc3[nH]c2=O)c(C)c1 | 0.27 | 0.648 |
| N#CC1=C(N)NC(SCC(=O)Nc2ccc(Br)cc2)=C(C#N)C12CCCCC2 | 0.252 | 0.586 |
| CSc1nnc2c3ccccc3n(C)c2n1 | 0.25 | 0.624 |
| COc1cccc(NC(=O)c2c(OC)cccc2OC)c1 | 0.256 | 0.62 |
| COc1ccc(N2C(=O)CCC(C(C)=O)=C2C)cc1 | 0.266 | 0.629 |
| CC(=O)c1cccc(NC(=O)C(Cc2ccc([N+](=O)[O-])cc2)N2C(=O)c3ccccc3C2=O)c1 (centres undefined) | 0.235 | 0.608 |
